According to publication PMC8883701:
These are yes or no findings as the source states them, for the method shown. In cells and extracts the contact can be indirect. Some results given as binding are weak or reduced against the parent protein; the word gives no strength. For some of these results: Tags and fused reporters may be left off the sequences shown.

Sequences of proteins named here, by UniProt entry; tags and fusion partners are left off. A change or cut given only in a name is not applied to a line headed by its entry. Residues count along the entry.
UniProt P09874: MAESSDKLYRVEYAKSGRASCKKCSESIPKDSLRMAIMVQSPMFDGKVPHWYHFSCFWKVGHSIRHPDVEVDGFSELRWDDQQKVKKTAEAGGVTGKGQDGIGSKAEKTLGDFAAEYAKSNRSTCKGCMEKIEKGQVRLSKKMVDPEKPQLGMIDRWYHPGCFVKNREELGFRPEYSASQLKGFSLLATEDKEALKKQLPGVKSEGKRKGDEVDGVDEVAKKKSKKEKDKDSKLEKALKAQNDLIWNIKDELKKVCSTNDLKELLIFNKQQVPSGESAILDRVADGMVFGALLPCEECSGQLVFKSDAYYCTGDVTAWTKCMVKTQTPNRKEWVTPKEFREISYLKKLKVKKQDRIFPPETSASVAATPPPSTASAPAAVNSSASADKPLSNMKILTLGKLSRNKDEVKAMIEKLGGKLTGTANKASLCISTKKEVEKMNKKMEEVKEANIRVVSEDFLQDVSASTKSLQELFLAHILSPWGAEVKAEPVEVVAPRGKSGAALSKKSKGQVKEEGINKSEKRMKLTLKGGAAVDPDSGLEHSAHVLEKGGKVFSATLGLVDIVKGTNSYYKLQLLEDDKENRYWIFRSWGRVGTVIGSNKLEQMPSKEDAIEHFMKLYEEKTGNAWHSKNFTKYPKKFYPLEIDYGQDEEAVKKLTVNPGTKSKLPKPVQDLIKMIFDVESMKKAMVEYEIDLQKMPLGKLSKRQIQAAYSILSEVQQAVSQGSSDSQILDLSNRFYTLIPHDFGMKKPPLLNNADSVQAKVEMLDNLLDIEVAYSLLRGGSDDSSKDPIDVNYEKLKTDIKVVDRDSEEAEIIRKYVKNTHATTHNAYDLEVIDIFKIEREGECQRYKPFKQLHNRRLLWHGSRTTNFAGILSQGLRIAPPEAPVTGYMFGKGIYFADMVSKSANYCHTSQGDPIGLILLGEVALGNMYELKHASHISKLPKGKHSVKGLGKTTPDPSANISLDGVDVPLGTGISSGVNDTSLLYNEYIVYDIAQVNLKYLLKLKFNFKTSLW
UniProt P02545, residues 1-646: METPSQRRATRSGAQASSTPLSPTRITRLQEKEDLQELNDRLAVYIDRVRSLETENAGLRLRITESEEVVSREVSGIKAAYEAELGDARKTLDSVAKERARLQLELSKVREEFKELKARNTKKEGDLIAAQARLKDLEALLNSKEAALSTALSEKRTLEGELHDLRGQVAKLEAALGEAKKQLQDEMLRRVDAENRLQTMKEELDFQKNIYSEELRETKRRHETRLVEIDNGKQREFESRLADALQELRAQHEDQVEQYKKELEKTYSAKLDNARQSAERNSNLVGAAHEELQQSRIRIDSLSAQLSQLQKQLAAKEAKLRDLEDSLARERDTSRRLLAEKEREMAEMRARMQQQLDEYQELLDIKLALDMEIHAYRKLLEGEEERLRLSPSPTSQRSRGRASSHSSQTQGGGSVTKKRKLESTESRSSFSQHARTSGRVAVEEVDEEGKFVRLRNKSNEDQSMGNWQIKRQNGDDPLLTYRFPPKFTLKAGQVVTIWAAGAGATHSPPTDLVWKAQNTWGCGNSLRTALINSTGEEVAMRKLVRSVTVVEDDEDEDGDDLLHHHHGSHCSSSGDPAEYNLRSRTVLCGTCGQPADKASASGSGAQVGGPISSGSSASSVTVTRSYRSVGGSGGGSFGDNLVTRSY

Columns and labels:
FLAG-tagged LAP2α/2RA = molecular target: T1, FLAG-tagged LAP2α/2RA (UniProt P42166); assay: co-IP; FLAG-tagged LAP2α variants transfected into HeLa cells
T1 sequence: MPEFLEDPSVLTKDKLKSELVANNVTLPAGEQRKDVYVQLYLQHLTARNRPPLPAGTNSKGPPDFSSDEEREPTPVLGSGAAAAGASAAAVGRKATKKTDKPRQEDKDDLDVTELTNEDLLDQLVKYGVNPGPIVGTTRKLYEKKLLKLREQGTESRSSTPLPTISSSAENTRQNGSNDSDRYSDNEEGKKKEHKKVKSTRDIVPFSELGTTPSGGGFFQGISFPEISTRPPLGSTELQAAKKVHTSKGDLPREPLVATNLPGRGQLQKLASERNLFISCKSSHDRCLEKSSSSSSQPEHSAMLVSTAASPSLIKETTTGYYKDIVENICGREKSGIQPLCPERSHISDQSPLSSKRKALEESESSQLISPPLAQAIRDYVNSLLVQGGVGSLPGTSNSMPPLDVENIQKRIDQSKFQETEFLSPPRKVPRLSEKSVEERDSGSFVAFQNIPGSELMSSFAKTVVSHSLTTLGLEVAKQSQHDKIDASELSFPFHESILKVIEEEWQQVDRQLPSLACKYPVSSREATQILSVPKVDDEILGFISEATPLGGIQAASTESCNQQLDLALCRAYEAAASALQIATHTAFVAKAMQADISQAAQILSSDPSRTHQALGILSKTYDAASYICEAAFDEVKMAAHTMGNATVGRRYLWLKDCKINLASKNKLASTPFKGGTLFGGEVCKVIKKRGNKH

FLAG-tagged LAP2α/2RE = molecular target: T2, FLAG-tagged LAP2α/2RE (UniProt P42166); assay: as above
T2 sequence: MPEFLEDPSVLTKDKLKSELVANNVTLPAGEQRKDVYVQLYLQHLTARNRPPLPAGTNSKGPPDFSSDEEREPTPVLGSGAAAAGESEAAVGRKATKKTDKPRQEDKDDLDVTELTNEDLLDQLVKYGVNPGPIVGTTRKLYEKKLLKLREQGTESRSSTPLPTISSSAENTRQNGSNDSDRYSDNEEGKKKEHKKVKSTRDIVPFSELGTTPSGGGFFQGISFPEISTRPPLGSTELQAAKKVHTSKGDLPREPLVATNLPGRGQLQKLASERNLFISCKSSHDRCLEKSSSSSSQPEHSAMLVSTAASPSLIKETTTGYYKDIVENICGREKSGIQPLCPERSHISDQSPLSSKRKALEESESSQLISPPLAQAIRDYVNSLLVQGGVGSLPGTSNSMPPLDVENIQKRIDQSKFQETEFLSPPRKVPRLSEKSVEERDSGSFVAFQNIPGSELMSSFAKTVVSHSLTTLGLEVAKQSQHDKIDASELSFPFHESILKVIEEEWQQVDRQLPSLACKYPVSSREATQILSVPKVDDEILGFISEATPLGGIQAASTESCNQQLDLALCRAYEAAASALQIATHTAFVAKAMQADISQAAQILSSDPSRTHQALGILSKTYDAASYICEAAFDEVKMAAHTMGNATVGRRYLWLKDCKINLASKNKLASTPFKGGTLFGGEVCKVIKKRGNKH

FLAG-tagged LAP2α/2RQ = molecular target: T3, FLAG-tagged LAP2α/2RQ (UniProt P42166); assay: as above
T3 sequence: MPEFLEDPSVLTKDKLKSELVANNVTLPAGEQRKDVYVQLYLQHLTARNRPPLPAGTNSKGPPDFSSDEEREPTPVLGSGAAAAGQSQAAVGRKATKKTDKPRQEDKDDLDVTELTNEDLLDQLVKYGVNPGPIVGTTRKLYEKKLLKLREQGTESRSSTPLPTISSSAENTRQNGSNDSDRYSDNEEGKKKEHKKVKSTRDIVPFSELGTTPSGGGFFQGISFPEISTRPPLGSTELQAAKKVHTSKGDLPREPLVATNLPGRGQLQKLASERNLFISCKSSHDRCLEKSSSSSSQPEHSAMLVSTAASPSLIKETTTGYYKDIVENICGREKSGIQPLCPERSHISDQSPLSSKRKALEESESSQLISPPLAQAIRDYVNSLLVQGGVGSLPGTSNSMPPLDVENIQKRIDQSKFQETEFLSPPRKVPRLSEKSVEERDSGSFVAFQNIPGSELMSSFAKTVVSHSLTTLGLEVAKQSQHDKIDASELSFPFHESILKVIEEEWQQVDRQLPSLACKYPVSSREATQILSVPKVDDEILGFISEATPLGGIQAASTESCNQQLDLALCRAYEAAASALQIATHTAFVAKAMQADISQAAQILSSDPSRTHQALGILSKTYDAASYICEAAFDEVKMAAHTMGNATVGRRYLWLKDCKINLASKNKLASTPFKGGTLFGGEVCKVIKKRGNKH

[1] = molecular target: T4, FLAG-GFP-tagged LAP2α C (C-terminus, 415-695) (UniProt P42166); assay: co-IP; whole-cell lysates of HeLa cells expressing FLAG-GFP-tagged LAP2α truncation or deletion mutants
T4 sequence: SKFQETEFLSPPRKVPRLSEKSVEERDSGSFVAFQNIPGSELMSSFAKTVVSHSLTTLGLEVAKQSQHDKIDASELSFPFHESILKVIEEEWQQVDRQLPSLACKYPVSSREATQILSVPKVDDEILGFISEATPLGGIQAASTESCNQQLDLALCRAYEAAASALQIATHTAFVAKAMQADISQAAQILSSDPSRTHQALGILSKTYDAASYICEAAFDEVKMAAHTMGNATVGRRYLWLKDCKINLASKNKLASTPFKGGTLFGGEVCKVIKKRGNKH

[2] = molecular target: PARylation activity-deficient PARP1 (PARP1/E988K) (UniProt P09874); assay: co-IP; PARP1/wt and PARP1/E988K, Figure S3N; cells and constructs not shown
[3] = molecular target: wild type PARP1 (PARP1/wt) (UniProt P09874); assay: as above

Measured: binding

Lamin A/C (from UniProt P02545 1-646)
binds: FLAG-tagged LAP2α/2RA | FLAG-tagged LAP2α/2RE | FLAG-tagged LAP2α/2RQ | [1]

Lamin-associated polypeptide 2 alpha (LAP2α) (from UniProt P42166 1-694)
binds: [2] | [3]

B1: retinoblastoma protein (pRb) (protein, UniProt P06400 1-928)
chain: MPPKTPRKTAATAAAAAAEPPAPPPPPPPEEDPEQDSGPEDLPLVRLEFEETEEPDFTALCQKLKIPDHVRERAWLTWEKVSSVDGVLGGYIQKKKELWGICIFIAAVDLDEMSFTFTELQKNIEISVHKFFNLLKEIDTSTKVDNAMSRLLKKYDVLFALFSKLERTCELIYLTQPSSSISTEINSALVLKVSWITFLLAKGEVLQMEDDLVISFQLMLCVLDYFIKLSPPMLLKEPYKTAVIPINGSPRTPRRGQNRSARIAKQLENDTRIIEVLCKEHECNIDEVKNVYFKNFIPFMNSLGLVTSNGLPEVENLSKRYEEIYLKNKDLDARLFLDHDKTLQTDSIDSFETQRTPRKSNLDEEVNVIPPHTPVRTVMNTIQQLMMILNSASDQPSENLISYFNNCTVNPKESILKRVKDIGYIFKEKFAKAVGQGCVEIGSQRYKLGVRLYYRVMESMLKSEEERLSIQNFSKLLNDNIFHMSLLACALEVVMATYSRSTSQNLDSGTDLSFPWILNVLNLKAFDFYKVIESFIKAEGNLTREMIKHLERCEHRIMESLAWLSDSPLFDLIKQSKDREGPTDHLESACPLNLPLQNNHTAADMYLSPVRSPKKKGSTTRVNSTANAETQATSAFQTQKPLKSTSLSLFYKKVYRLAYLRLNTLCERLLSEHPELEHIIWTLFQHTLQNEYELMRDRHLDQIMMCSMYGICKVKNIDLKFKIIVTAYKDLPHAVQETFKRVLIKEEEYDSIIVFYNSVFMQRLKTNILQYASTRPPTLSPIPHIPRSPYKFPSSPLRIPGGNIYISPLKSPYKISEGLPTPTKMTPRSRILVSIGESFGTSEKFQKINQMVCNSDRVLKRSAEGSNPPKPLKKLRFDIEGSDEADGSKHLPGESKFQQKLAEMTSTRTRMQKQKMNDSMDTSNKEEK
binds: FLAG-tagged LAP2α/2RA | FLAG-tagged LAP2α/2RE | FLAG-tagged LAP2α/2RQ | [1]
